The other results are listed elsewhere or left out.
Compound: Cc1cc(ccc1-c1ccccc1)C(=O)N1CCCN(CC1)C(=O)CCl [compound 10]
Assay: probe-labelled cysteine peptide fold change vs DMSO (competition) (log2 fold change); higher = less target engagement (more negative = stronger competition)
Settings: THP-1, incubation time: 4 h
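Note: competitive profiling in live THP-1 cells: cysteine peptides tagged with an iodoacetamide desthiobiotin (IA-DTB) probe, intensity after compound treatment relative to DMSO-treated cells.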

Protein sequences, listed by entry. Tags and fused reporters are not part of them. Lines headed by an entry give the natural chain unless they say otherwise; changes in a name come on top.
UniProt Q9NX61: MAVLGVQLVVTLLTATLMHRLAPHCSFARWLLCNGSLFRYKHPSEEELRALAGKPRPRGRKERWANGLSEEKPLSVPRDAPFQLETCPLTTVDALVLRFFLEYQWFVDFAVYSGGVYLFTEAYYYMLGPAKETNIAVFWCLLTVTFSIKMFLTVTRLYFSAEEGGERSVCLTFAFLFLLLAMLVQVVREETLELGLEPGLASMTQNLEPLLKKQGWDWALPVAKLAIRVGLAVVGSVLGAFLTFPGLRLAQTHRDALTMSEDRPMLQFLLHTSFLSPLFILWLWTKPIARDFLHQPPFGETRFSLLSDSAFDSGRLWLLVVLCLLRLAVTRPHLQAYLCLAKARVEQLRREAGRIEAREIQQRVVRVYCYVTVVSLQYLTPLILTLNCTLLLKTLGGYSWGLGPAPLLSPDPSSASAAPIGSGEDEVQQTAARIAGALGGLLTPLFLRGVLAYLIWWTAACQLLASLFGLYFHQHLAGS
UniProt P11387: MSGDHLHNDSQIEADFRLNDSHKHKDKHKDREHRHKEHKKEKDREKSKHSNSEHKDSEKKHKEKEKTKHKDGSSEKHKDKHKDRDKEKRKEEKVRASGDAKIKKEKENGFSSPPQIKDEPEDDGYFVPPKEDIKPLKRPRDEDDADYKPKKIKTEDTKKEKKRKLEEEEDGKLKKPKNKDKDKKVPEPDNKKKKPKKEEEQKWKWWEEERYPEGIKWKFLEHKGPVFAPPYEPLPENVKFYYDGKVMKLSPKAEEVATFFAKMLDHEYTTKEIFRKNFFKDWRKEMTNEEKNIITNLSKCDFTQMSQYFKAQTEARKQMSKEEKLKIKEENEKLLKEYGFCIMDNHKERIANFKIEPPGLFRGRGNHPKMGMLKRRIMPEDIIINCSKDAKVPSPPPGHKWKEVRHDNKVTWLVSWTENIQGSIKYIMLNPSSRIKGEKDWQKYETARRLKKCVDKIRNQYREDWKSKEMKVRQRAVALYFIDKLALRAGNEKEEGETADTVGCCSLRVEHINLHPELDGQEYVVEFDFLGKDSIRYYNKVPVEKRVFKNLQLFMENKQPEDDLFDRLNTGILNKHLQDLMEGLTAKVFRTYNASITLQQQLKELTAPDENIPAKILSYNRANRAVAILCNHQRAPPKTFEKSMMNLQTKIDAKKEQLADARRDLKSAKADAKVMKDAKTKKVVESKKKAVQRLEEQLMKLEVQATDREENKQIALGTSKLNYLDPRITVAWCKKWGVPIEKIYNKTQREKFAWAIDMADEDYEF
UniProt P60174, whole entry, looked up: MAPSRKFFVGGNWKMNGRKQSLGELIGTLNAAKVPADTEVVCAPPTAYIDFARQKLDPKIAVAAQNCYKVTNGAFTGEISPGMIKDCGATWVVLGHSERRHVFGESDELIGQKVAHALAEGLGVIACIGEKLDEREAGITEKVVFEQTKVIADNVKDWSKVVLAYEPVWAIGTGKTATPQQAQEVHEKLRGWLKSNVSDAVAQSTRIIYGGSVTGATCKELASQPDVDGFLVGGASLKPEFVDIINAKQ
UniProt Q9Y5L0: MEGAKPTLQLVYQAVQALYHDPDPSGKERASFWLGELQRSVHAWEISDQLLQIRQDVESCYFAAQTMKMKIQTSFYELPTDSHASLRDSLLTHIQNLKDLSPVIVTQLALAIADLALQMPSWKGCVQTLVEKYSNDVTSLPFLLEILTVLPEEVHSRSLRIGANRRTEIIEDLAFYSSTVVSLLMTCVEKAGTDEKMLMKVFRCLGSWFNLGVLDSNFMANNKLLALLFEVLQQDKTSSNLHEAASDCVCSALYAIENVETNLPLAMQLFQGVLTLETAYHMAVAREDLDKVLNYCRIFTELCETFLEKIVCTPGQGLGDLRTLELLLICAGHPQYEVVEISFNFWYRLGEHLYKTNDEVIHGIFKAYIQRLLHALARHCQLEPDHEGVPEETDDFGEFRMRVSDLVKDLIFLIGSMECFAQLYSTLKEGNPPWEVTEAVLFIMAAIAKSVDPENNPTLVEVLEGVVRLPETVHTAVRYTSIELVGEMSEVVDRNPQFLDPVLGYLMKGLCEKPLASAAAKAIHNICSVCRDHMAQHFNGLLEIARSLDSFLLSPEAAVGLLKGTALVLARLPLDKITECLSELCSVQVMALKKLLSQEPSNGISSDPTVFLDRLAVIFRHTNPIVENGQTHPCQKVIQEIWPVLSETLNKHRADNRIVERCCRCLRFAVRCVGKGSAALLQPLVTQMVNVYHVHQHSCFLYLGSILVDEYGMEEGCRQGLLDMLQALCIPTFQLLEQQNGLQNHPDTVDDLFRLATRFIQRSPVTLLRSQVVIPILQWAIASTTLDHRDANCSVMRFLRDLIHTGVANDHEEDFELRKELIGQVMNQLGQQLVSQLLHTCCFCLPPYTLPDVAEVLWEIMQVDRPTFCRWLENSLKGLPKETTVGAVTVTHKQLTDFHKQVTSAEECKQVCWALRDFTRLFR
UniProt Q99805: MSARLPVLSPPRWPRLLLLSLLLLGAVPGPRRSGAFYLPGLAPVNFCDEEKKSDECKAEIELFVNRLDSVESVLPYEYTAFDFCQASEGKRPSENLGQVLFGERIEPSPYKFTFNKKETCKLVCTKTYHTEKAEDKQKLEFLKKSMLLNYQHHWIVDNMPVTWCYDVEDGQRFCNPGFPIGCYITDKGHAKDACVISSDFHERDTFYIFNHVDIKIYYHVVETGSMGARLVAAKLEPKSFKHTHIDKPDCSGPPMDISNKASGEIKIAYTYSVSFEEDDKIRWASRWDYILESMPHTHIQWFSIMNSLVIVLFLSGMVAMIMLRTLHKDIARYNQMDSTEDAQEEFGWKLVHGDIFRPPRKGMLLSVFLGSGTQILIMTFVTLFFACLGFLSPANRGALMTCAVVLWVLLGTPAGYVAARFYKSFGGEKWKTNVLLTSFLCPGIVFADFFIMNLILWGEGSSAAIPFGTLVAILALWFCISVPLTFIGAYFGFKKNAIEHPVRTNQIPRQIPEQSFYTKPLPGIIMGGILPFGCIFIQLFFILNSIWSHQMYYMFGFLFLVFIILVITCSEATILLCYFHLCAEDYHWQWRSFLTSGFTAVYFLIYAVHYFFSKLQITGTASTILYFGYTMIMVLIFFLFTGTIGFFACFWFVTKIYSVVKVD
UniProt Q68CZ2: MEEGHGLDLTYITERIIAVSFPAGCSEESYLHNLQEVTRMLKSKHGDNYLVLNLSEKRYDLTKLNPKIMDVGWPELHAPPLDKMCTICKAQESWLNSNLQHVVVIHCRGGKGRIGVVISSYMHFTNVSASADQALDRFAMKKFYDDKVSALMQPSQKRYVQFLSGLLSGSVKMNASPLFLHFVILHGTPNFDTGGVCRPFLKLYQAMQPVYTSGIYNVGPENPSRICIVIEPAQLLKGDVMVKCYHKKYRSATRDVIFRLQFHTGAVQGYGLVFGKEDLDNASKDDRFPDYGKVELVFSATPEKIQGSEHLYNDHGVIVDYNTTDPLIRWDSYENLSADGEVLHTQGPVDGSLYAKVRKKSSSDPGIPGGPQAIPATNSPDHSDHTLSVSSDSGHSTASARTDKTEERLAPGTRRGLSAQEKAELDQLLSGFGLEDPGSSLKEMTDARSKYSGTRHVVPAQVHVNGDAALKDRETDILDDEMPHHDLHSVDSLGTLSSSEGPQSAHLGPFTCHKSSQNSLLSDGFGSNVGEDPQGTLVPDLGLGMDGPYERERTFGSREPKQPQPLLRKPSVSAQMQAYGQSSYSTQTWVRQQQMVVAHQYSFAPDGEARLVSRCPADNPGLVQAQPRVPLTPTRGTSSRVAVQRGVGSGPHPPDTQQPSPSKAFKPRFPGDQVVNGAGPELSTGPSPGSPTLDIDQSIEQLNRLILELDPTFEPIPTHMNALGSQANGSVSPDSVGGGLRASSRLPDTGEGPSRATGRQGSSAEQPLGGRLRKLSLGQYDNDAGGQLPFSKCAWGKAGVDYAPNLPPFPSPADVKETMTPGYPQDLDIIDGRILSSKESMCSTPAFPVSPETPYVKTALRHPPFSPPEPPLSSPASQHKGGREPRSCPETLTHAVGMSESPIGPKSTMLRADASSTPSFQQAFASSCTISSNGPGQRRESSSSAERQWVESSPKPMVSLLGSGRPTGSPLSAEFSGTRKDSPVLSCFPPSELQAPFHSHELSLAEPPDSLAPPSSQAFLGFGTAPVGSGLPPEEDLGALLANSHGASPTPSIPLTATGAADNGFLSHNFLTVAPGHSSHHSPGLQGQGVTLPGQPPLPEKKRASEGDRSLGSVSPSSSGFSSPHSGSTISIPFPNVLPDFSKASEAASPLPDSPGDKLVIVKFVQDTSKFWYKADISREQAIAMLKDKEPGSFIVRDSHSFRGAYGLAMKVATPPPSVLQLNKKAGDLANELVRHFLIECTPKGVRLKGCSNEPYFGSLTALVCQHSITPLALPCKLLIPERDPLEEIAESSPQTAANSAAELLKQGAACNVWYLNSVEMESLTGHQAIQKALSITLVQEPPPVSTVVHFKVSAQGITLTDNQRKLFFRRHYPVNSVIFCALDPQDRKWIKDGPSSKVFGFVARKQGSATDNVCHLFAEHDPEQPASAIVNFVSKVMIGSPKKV
UniProt Q8NBN3: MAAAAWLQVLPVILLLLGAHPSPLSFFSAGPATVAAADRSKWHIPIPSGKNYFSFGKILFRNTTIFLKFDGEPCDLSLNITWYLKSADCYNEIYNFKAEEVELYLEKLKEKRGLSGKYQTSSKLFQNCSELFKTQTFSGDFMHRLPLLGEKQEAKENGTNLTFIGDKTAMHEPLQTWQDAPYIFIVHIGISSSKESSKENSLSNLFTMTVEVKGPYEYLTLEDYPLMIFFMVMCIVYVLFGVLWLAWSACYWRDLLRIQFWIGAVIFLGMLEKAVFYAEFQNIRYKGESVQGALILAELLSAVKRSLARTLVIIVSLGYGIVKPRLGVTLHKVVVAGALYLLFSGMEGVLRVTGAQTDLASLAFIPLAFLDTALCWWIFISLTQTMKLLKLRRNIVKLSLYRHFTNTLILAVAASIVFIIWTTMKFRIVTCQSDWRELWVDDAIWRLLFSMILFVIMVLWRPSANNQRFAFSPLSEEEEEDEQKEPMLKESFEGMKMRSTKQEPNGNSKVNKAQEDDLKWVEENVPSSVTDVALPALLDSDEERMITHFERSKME
UniProt Q96HA7: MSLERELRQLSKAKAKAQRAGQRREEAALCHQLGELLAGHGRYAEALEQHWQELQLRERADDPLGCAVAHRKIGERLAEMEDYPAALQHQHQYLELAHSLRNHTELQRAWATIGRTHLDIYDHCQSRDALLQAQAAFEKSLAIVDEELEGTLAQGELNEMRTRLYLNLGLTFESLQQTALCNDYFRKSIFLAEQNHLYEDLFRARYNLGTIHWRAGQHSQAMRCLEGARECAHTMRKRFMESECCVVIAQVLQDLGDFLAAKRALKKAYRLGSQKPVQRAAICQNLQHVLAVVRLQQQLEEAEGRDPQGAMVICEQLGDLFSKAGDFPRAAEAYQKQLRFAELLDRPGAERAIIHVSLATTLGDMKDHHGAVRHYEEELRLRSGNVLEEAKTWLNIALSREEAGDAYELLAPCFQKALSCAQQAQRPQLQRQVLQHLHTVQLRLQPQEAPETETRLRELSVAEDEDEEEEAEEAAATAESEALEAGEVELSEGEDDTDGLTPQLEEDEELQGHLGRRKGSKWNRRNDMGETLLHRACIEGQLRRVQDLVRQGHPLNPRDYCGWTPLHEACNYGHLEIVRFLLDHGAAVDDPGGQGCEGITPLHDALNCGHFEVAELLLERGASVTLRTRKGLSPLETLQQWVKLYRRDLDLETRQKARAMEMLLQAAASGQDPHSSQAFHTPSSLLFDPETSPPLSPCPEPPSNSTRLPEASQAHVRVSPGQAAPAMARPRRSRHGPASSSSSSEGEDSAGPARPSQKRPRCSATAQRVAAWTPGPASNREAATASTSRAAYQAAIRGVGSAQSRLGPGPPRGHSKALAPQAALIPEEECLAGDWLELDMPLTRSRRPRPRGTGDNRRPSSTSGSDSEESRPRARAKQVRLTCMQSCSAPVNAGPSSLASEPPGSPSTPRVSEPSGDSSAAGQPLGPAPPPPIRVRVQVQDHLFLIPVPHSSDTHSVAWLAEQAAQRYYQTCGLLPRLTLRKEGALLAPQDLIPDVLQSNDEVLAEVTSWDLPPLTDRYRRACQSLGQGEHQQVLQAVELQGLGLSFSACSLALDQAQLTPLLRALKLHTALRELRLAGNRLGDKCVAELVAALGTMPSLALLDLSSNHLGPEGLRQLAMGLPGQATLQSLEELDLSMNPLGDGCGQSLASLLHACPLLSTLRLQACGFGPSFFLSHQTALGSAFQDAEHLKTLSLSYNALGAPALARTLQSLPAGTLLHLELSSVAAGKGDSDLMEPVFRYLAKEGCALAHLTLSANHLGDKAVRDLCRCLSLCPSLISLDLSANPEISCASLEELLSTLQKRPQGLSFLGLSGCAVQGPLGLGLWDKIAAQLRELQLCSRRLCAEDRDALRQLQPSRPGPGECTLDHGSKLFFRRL

## TNFAIP8_O95379_165_VNNVFDHFSDCEFLAALYNPFGNFKPHLQK (UniProt O95379)
10 µM
  probe-labelled cysteine peptide fold change: -0.156
50 µM
  probe-labelled cysteine peptide fold change: -0.511

## TMEM161A_Q9NX61_33_WLLCNGSLFR (UniProt Q9NX61)
10 µM
  probe-labelled cysteine peptide fold change: -0.213
50 µM
  probe-labelled cysteine peptide fold change: -0.345

## TPM4_P67936_247_EENVGLHQTLDQTLNELNCI (UniProt P67936)
10 µM
  probe-labelled cysteine peptide fold change: -0.132
50 µM
  probe-labelled cysteine peptide fold change: 0.00104

## TOP1_P11387_504_AGNEKEEGETADTVGCCSLR (UniProt P11387)
10 µM
  probe-labelled cysteine peptide fold change: -0.0614
50 µM
  probe-labelled cysteine peptide fold change: -1.22

## TPI1_P60174_124_DCGATWVVLGHSER (UniProt P60174)
10 µM
  probe-labelled cysteine peptide fold change: 0.109
50 µM
  probe-labelled cysteine peptide fold change: 0.088

## TPI1_P60174_164_VAHALAEGLGVIACIGEKLDEREAGITEK (UniProt P60174)
10 µM
  probe-labelled cysteine peptide fold change: 0.0228
50 µM
  probe-labelled cysteine peptide fold change: -0.204

## TNPO3_Q9Y5L0_634_HTNPIVENGQTHPCQK (UniProt Q9Y5L0)
10 µM
  probe-labelled cysteine peptide fold change: 0.0283
50 µM
  probe-labelled cysteine peptide fold change: -0.115

## TM9SF2_Q99805_194_DACVISSDFHER (UniProt Q99805)
10 µM
  probe-labelled cysteine peptide fold change: 0.0577
50 µM
  probe-labelled cysteine peptide fold change: 0.0857

## TNS3_Q68CZ2_25_IIAVSFPAGCSEESYLHNLQEVTR (UniProt Q68CZ2)
10 µM
  probe-labelled cysteine peptide fold change: -0.0114
50 µM
  probe-labelled cysteine peptide fold change: 0.115

## TOP2B_Q02880_321_WDVCLTLSEK (UniProt Q02880)
10 µM
  probe-labelled cysteine peptide fold change: 0.2
50 µM
  probe-labelled cysteine peptide fold change: 0.295

## TMEM87A_Q8NBN3_89_SADCYNEIYNFK (UniProt Q8NBN3)
10 µM
  probe-labelled cysteine peptide fold change: -0.0936
50 µM
  probe-labelled cysteine peptide fold change: 0.149

## TNPO3_Q9Y5L0_204_CLGSWFNLGVLDSNFMANNK (UniProt Q9Y5L0)
10 µM
  probe-labelled cysteine peptide fold change: -0.18
50 µM
  probe-labelled cysteine peptide fold change: 0.526

## TM9SF2_Q99805_164_SMLLNYQHHWIVDNMPVTWCYDVEDGQR (UniProt Q99805)
10 µM
  probe-labelled cysteine peptide fold change: -0.00973
50 µM
  probe-labelled cysteine peptide fold change: 0.0215

## TMEM126B_Q8IUX1_151_SSLIGIVCGVFYPSSLAFTK (UniProt Q8IUX1)
10 µM
  probe-labelled cysteine peptide fold change: -0.506
50 µM
  probe-labelled cysteine peptide fold change: 0.449

## TNIP2_Q8NFZ5_144_AASDVLCR (UniProt Q8NFZ5)
10 µM
  probe-labelled cysteine peptide fold change: -0.0105
50 µM
  probe-labelled cysteine peptide fold change: -0.0887

## TOE1_Q96GM8_89_AVCHAAR (UniProt Q96GM8)
10 µM
  probe-labelled cysteine peptide fold change: 0.049
50 µM
  probe-labelled cysteine peptide fold change: 0.191

## TNS3_Q68CZ2_842_ESMCSTPAFPVSPETPYVK (UniProt Q68CZ2)
10 µM
  probe-labelled cysteine peptide fold change: 0.0033
50 µM
  probe-labelled cysteine peptide fold change: -0.451

## TPI1_P60174_124_DCGATWVVLGHSERR (UniProt P60174)
10 µM
  probe-labelled cysteine peptide fold change: -0.0531
50 µM
  probe-labelled cysteine peptide fold change: -0.788

## TOP1_P11387_386_IMPEDIIINCSK (UniProt P11387)
10 µM
  probe-labelled cysteine peptide fold change: -0.14
50 µM
  probe-labelled cysteine peptide fold change: -0.0606

## TONSL_Q96HA7_231_ECAHTMR (UniProt Q96HA7)
10 µM
  probe-labelled cysteine peptide fold change: -0.316
50 µM
  probe-labelled cysteine peptide fold change: -1.42

## TOR3A_Q9H497_227_ETQQLCHQTLFIFDEAEK (UniProt Q9H497)
10 µM
  probe-labelled cysteine peptide fold change: 0.174
50 µM
  probe-labelled cysteine peptide fold change: 0.408

## TONSL_Q96HA7_1167_LQACGFGPSFFLSHQTALGSAFQDAEHLK (UniProt Q96HA7)
10 µM
  probe-labelled cysteine peptide fold change: 0.0464
50 µM
  probe-labelled cysteine peptide fold change: -0.305

## TMPO_P42166_341_SGIQPLCPER (UniProt P42166)
10 µM
  probe-labelled cysteine peptide fold change: -0.27
50 µM
  probe-labelled cysteine peptide fold change: -0.36

## TMED4_Q7Z7H5_41_RCFIEEIPDETMVIGNYR (UniProt Q7Z7H5)
10 µM
  probe-labelled cysteine peptide fold change: -0.152
50 µM
  probe-labelled cysteine peptide fold change: 0.0268

## TNFAIP2_Q03169_45_GLANVFCVFTK (UniProt Q03169)
10 µM
  probe-labelled cysteine peptide fold change: -0.456
50 µM
  probe-labelled cysteine peptide fold change: -0.234

## TOP2A_P11388_733_VLFTCFK (UniProt P11388)
10 µM
  probe-labelled cysteine peptide fold change: 0.102
50 µM
  probe-labelled cysteine peptide fold change: 0.328

## TMEM209_Q96SK2_495_TFTSQHFVQTPNKPDVTNENVFCIYQSAINPPHYELIYQR (UniProt Q96SK2)
10 µM
  probe-labelled cysteine peptide fold change: 0.145
50 µM
  probe-labelled cysteine peptide fold change: 0.0358

## TMED8_Q6PL24_161_KVSPPLMAPPCIWTFAK (UniProt Q6PL24)
10 µM
  probe-labelled cysteine peptide fold change: -0.332
50 µM
  probe-labelled cysteine peptide fold change: -0.766

## TMEM62_Q0P6H9_325_SLLYSCGEHEPLER (UniProt Q0P6H9)
10 µM
  probe-labelled cysteine peptide fold change: 0.0969
50 µM
  probe-labelled cysteine peptide fold change: -0.0294

## TLN2_Q9Y4G6_2153_ALEATIECIK (UniProt Q9Y4G6)
10 µM
  probe-labelled cysteine peptide fold change: -0.157
50 µM
  probe-labelled cysteine peptide fold change: -0.0725

## TOMM70_O94826_427_ILLDQVEEAVADFDECIR (UniProt O94826)
10 µM
  probe-labelled cysteine peptide fold change: -0.289
50 µM
  probe-labelled cysteine peptide fold change: 0.369

## TNS3_Q68CZ2_227_ICIVIEPAQLLK (UniProt Q68CZ2)
10 µM
  probe-labelled cysteine peptide fold change: 0.128
50 µM
  probe-labelled cysteine peptide fold change: -0.0639

## TNFAIP3_P21580_158_SQEFVETGLCYDTR (UniProt P21580)
10 µM
  probe-labelled cysteine peptide fold change: -0.274
50 µM
  probe-labelled cysteine peptide fold change: 0.0322

## TMEM106B_Q9NUM4_61_DSVTCPTCQGTGR (UniProt Q9NUM4)
10 µM
  probe-labelled cysteine peptide fold change: -0.109
50 µM
  probe-labelled cysteine peptide fold change: -0.0327

## TLR2_O60603_454_IHSVTGCIPK (UniProt O60603)
10 µM
  probe-labelled cysteine peptide fold change: -0.0796
50 µM
  probe-labelled cysteine peptide fold change: 0.228

## TP53BP1_Q12888_1038+1040_TMSVLSCICEAR (UniProt Q12888)
10 µM
  probe-labelled cysteine peptide fold change: -0.295
50 µM
  probe-labelled cysteine peptide fold change: -0.659
